Results deposited as PubChem BioAssay AID1259308 (NCATS, 2017)
Assay: 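Genes whose loss raises luciferase production in HEK293 cells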 (primary screen). Cell system: human HEK293 embryonic kidney cells stably expressing firefly luciferase (HEK-CMV-Luc2-Hygro). Reagents: single siRNA against human genes, 0.8 pmol siRNA per well. Duration: 72 h. Detection: 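Reporter luminescence and viable-cell signal on separate replicate plates, given as percent of non-targeting control and median/MAD z-scores, plus per-cell luciferase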. Scale: total luciferase, z-score: higher = more reporter protein produced. Hit rule: 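Active when the median/MAD z-score for overall luciferase is greater than 3; a gene was taken forward for validation with new siRNAs if at least two of its three siRNAs passed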. Meaning of the calls: active = raised luciferase; inactive = no rise.
Here is an unselected part of about 59,000 deposited reagents. Of all reagents, about 1,510 (2.6%) are marked active. 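Calls use total luciferase alone and ignore viability, so some active siRNAs may act by altering cell number.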 Reagents against one gene are numbered here. Further read-outs or replicates are left out here.

total luciferase, z-score, by target gene and reagent
MTMR3 (myotubularin related protein 3): #1 -0.502 inactive; #2 -1.09 inactive; #3 -1.47 inactive
RGS9 (regulator of G protein signaling 9): #1 -0.739 inactive; #2 1.23 inactive; #3 -0.157 inactive
SCGB1D2 (secretoglobin family 1D member 2): #1 1.34 inactive; #2 1.53 inactive; #3 2.61 inactive
TRIM48 (tripartite motif containing 48): #1 -0.723 inactive; #2 -0.266 inactive; #3 1.72 inactive
ADCYAP1R1 (ADCYAP receptor type I): #1 1.24 inactive; #2 -0.156 inactive; #3 -0.527 inactive
UBE2G2 (ubiquitin conjugating enzyme E2 G2): #1 0.52 inactive; #2 1.16 inactive; #3 -1.09 inactive
PRRC2A (proline rich coiled-coil 2A): #1 0.259 inactive; #2 -2.58 inactive; #3 -1.76 inactive
TRIAP1 (TP53 regulated inhibitor of apoptosis 1): #1 -0.0726 inactive; #2 -0.404 inactive; #3 -2.24 inactive
PHF21B (PHD finger protein 21B): #1 0.672 inactive; #2 2.76 inactive; #3 -0.627 inactive
ZNF630 (zinc finger protein 630): #1 0.378 inactive; #2 2.12 inactive; #3 0.339 inactive
ABHD17B (abhydrolase domain containing 17B, depalmitoylase): #1 1.63 inactive; #2 0.347 inactive; #3 -1.38 inactive
SLC39A12: #1 -0.279 inactive; #2 0.927 inactive; #3 1.05 inactive
CLUH (CLUH binding protein of NUMT mRNA): #1 0.189 inactive; #2 -2 inactive; #3 3.79 active
OSER1 (oxidative stress responsive serine rich 1): #1 -1.01 inactive; #2 -0.485 inactive; #3 -0.392 inactive
CRPPA (CDP-L-ribitol pyrophosphorylase A): #1 0.158 inactive; #2 0.917 inactive; #3 0.00946 inactive
STX6 (syntaxin 6): #1 -0.674 inactive; #2 0.202 inactive; #3 -0.445 inactive
WDR82 (WD repeat domain 82): #1 2.39 inactive; #2 -0.39 inactive; #3 0.0126 inactive
INTS8 (integrator complex subunit 8): #1 0.661 inactive; #2 5.34 active; #3 2.74 inactive
SOX12 (SRY-box transcription factor 12): #1 -0.915 inactive; #2 0.0669 inactive; #3 1.02 inactive
